# The whole screen tested about 300,000 compounds, of which about 5,400 (1.8%) were called active. Inconclusive results, whose numbers are uncertain, are shown with a selection of clear calls. Calls follow the shape of the full dose curve; tested in HEK293 cells. Potencies beside an inconclusive call are fits to weak or partial responses and may not hold up. Some compounds were tested as several samples or in several runs, with calls that do not always agree.
# Assay: qHTS for inhibitors of binding or entry into cells for Marburg Virus
# Settings: Marburg virus pseudotyped entry inhibition, cell reporter; series mostly up to 37.8 µM
# Potency is read from the fitted curve at half-maximal effect.
row,Compound,Potency
1,CC1CCN(C(=O)COC(=O)c2ccc(N3CCCC3=O)cc2)CC1,"inconclusive: 1.78 µM [inhibitor, full curve, poor fit]"
2,O/N=C(/c1ccc(F)cc1)C1CC1c1c(F)cccc1Cl (centres undefined),"inconclusive: 35.5 µM [inhibitor, single point]"
3,CCOC(=O)C1(CCCc2ccccc2)CCN(C(=O)c2ccoc2)CC1,"inconclusive: 3.16 µM [activator, single point]"
4,O=C(CSC(=S)N1CCSCC1)c1ccc(Cl)cc1,"inconclusive: 2 µM [activator, full curve, poor fit]"
5,Cc1ccc(F)cc1NC(=O)Cc1nn(C)c(=O)c2ccccc12,"inconclusive: 10 µM [inhibitor, single point]"
6,Cc1onc(-c2ccccc2)c1C(=O)NNC(=S)NC(=O)c1ccc(F)cc1,"inconclusive: 7.94 µM [inhibitor, partial curve, poor fit]"
7,COc1ccccc1CN1C[C@@H]2C[C@@H](c3ccc(C)c(C)c3)N3CCC[C@@]23C1=O,"inconclusive: 8.91 µM [inhibitor, partial curve, poor fit]"
8,Cc1cc(N2CCOCC2)ccc1/C=C1\SC(=O)N(C(C)C)C1=O,"inconclusive: 1.46 µM [activator, full curve]"
9,COc1cc(C(=O)N2CCN(c3ccccc3OC)CC2)c([N+](=O)[O-])cc1OC,"inconclusive: 10 µM [inhibitor, partial curve]"
10,Cc1cccc2[nH]c3c(N4CC=C(c5ccc(F)cc5)CC4)ncnc3c12,active: 11.2 µM
11,Cc1cccc(N(C)S(=O)(=O)c2ccc3c(c2)NC(=O)CC(=O)N3)c1,"inconclusive: 35.5 µM [inhibitor, single point]"
12,COC(=O)CN(C(=S)Nc1ccc(F)cc1)C1CC(=O)N(c2ccccc2)C1=O (centres undefined),"inconclusive: 3.55 µM [activator, partial curve, poor fit]"
13,COC(=O)c1ccc(-n2c(C)cc(C(=O)COC(=O)CC3Sc4ccccc4NC3=O)c2C)cc1 (centres undefined),"inconclusive: 3.16 µM [inhibitor, single point]"
14,CCCN1CCc2cc(O)cc3c2[C@H]1Cc1ccc(O)c(O)c1-3,active: 35.5 µM
15,CN1CCN(c2oc(-c3ccccc3)nc2S(=O)(=O)c2ccc(Br)cc2)CC1,"inconclusive: 11.2 µM [inhibitor, partial curve, poor fit]"
16,CCOC(=O)N1CCC(N(CCN(C)C)C(=S)Nc2ccc(Oc3ccccc3)cc2)CC1,"inconclusive: 7.08 µM [inhibitor, partial curve, poor fit]"
17,COC(=O)Cn1ncc2c3ccccc3n(Cc3ccccc3)c2c1=O,inactive
18,CCOC(=O)Oc1ccc(/C=C2\N=C(C)OC2=O)cc1,inactive
19,COCC(=O)N1CCC(Oc2ccc(C(=O)NCCCC3CCCC3)cc2)CC1,"inconclusive: 0.794 µM [activator, single point]"
20,C/C(=N\NC(=O)CSc1ncccn1)c1ccc2c(c1)OCCO2,inactive
21,Cc1ccc(NC(=S)NNC(=O)c2ccccc2O)c(C)c1,"inconclusive: 3.16 µM [activator, partial curve, poor fit]"
22,O=C(Nc1ccc(N2CCCCC2)c(S(=O)(=O)Nc2ccccc2Cl)c1)c1cccnc1,"inconclusive: 7.94 µM [inhibitor, partial curve]"

row,Compound,Potency
1,O=C(COc1ccc(-c2nnco2)cc1)Nc1c(Cl)cccc1C(F)(F)F,"inconclusive: 1.12 µM [inhibitor, partial curve, poor fit]"
2,Cc1ccc(C(=O)O)cc1NC(=S)NC(=O)c1ccc([N+](=O)[O-])cc1Cl,"inconclusive: 25.1 µM [inhibitor, partial curve, poor fit]"
3,Cn1ccc2c(-c3ccc4[nH]ccc4c3)cc3c(c21)C1CCC3O1 (centres undefined),"inconclusive: 0.004 µM [activator, full curve, poor fit]"
4,C/C(CCN1CCc2nc(-c3ccccc3)c(-c3ccccc3)cc2C1)=N\O[C@H](C)c1cn([C@H](CO)Cc2ccccc2)nn1,"inconclusive: 8.2 µM [inhibitor, partial curve, poor fit]"
5,COc1ccc(/C=C(/C#N)C(=O)Nc2cc(C)ccc2C)cc1C(=O)O,"inconclusive: 35.5 µM [activator, single point]"
6,CN1CCN(c2ccccc2NC(=O)c2ccc([N+](=O)[O-])o2)CC1,"inconclusive: 12.6 µM [inhibitor, partial curve, poor fit]"
7,Cc1ccc2c(c1)C(c1ccncc1)=NNC(c1ccccc1)=N2,inactive
8,Cc1nc2nc[nH]n2c(=O)c1NS(=O)(=O)c1ccc(Br)cc1,inactive
9,COc1ccc(-c2csc(NC(=O)c3ccc(S(=O)(=O)N4CCc5ccccc5C4)cc3)n2)cc1,"inconclusive: 11.2 µM [inhibitor, partial curve, poor fit]"
10,COc1ccc(C(=O)NCCSC2CCCCC2)cc1,"inconclusive: 6.31 µM [activator, single point]"
11,COc1ccccc1CNC(=O)C1CCN(S(=O)(=O)Cc2ccccc2)CC1,inactive
12,CCCCN(C(=O)CCC(=O)Nc1cc(C)on1)C(C(=O)NC1CCCC1)c1ccc(F)cc1 (centres undefined),"inconclusive: 7.94 µM [inhibitor, partial curve, poor fit]"
13,Cc1ccccc1N1CCN(C2CCCN(C(=O)CCn3cnnn3)C2)CC1 (centres undefined),"inconclusive: 25.1 µM [activator, single point]"
14,O=C(Nc1ccccc1C(=O)NCC1CCCO1)c1ccc(Cl)cc1Cl (centres undefined),"inconclusive: 1.46 µM [inhibitor, partial curve, poor fit]"
15,CCOc1ccc(N2C(=O)CC(N3CCN(c4ccc(C(=O)c5ccncc5)cc4)CC3)C2=O)cc1 (centres undefined),"inconclusive: 0.158 µM [activator, full curve, poor fit]"
16,CCOc1ccc(NC(=O)CCSc2ccc3ccccc3n2)cc1,inactive
17,COc1ccc(OC)c(C2=NOC(C(=O)Nc3ccc4c(c3)OCCO4)C2)c1 (centres undefined),inactive
18,CCOc1ccc(NC(=O)CSc2nc3ccccc3c(=O)n2CCCC(=O)NCCCN2CCCC2=O)cc1,"inconclusive: 11.2 µM [activator, single point]"
19,O=C(Nc1cccc(Cl)c1)c1ccc(-n2cncn2)c([N+](=O)[O-])c1,inactive
20,Cc1ccccc1S(=O)(=O)Cc1ccc(C(=O)NCCN(CC(C)C)CC(C)C)o1,"inconclusive: 35.5 µM [inhibitor, single point]"
21,CCOc1ccc(C(C)=O)cc1CC(C(N)=O)C(N)=O,"inconclusive: 20 µM [activator, single point]"
22,CCCCC(=O)Nc1ccc(C(=O)Nc2ccc(OC)cc2[N+](=O)[O-])cc1,"inconclusive: 35.5 µM [activator, single point]"

row,Compound,Potency
1,CN(C)c1ccc(NC(=O)CN2CCC(O)(c3ccccc3)CC2)cc1,inactive
2,CCN(CC)c1ccc(/C=C(\C#N)c2nc(-c3cccs3)c(NC(C)=O)s2)cc1,inactive
3,CCCCCCN1CCN(C2CN(Cc3ccccc3)S(=O)(=O)C2)CC1 (centres undefined),"inconclusive: 0.0016 µM [activator, full curve, poor fit]"
4,Cc1cc(NC(=O)CSc2nc3cc(Cl)ccc3o2)no1,inactive
5,CCOC(=O)c1c(NC(=O)C(C)Sc2cn(CCNC(=O)c3ccc(OCC)cc3)c3ccccc23)sc2c1CCC2 (centres undefined),inactive
6,Cc1cccc(C(=O)Nc2ccc(N3CCN(C(=O)c4ccco4)CC3)cc2)c1,"inconclusive: 22.4 µM [activator, partial curve, poor fit]"
7,COc1ccc(C(=O)Nc2ccc(NC(=O)c3ccco3)cc2)cc1,"inconclusive: 35.5 µM [inhibitor, single point]"
8,O=C1CSC(c2cn(-c3ccccc3)nc2-c2cc3ccccc3oc2=O)N1Cc1ccccc1 (centres undefined),"inconclusive: 17.8 µM [inhibitor, single point]"
9,C=CCn1c(N2CCCCCC2)nc2c1c(=O)[nH]c(=O)n2C,inactive
10,COc1ccc(OC)c(CN2CCN(c3ccc(S(=O)(=O)N4CCCC4)cn3)CC2)c1,"inconclusive: 35.5 µM [inhibitor, single point]"
11,CCOC(=O)C1=C(N)OC2=C(C(=O)CCC2)C1c1cccs1 (centres undefined),inactive
12,CCn1c(SCC(=O)Nc2cc(C(C)(C)C)nn2-c2ccccc2)nnc1-c1cccs1,"inconclusive: 25.1 µM [inhibitor, single point]"
13,CC(C)COc1ccc(C(=O)N(CC(=O)Nc2ccccc2C(F)(F)F)Cc2ccco2)cc1,"inconclusive: 12.6 µM [inhibitor, partial curve, poor fit]"
14,CCOC(=O)/C(=C\C=C1/Sc2ccccc2N1CC)C(C)=O,"inconclusive: 0.251 µM [inhibitor, full curve, poor fit]"
15,COc1ccccc1CC(=O)NCC1CCCO1 (centres undefined),"inconclusive: 0.891 µM [inhibitor, partial curve, poor fit]"
16,Cc1ccc(C)c(NC(=O)CN2C(=O)NC(CCc3ccccc3)C2=O)c1 (centres undefined),"inconclusive: 7.94 µM [inhibitor, full curve, poor fit]"
17,COC(=O)c1ccc(S(=O)(=O)N2CCc3ccccc32)cc1,active: 2.51 µM
18,Cc1cc(C)c2c(=O)c3c(oc2c1)C(=O)N(CCCOC(C)C)C3c1ccccc1F (centres undefined),inactive
19,CCN(CC)C(=O)c1ccc(NC(=O)CCCSc2ccccc2)cc1,"inconclusive: 7.08 µM [inhibitor, partial curve, poor fit]"
20,COc1cccc(CC(=O)Nc2c(C(=O)N3CCN(c4ccccc4F)CC3)oc3ccccc23)c1,inactive

# 3 entries drawn at random from the list so far:
row,Compound,Potency
10,COc1ccc(C(=O)NCCSC2CCCCC2)cc1,"inconclusive: 6.31 µM [activator, single point]"
18,Cc1cc(C)c2c(=O)c3c(oc2c1)C(=O)N(CCCOC(C)C)C3c1ccccc1F (centres undefined),inactive
21,CCOc1ccc(C(C)=O)cc1CC(C(N)=O)C(N)=O,"inconclusive: 20 µM [activator, single point]"

# Rewritten with bars between the fields: part of the list above
row | Compound | Potency
5 | CCOC(=O)c1c(NC(=O)C(C)Sc2cn(CCNC(=O)c3ccc(OCC)cc3)c3ccccc23)sc2c1CCC2 (centres undefined) | inactive
6 | Cc1cccc(C(=O)Nc2ccc(N3CCN(C(=O)c4ccco4)CC3)cc2)c1 | inconclusive: 22.4 µM [activator, partial curve, poor fit]
